Data as given in patent US6544950B1, “Seventeen amino acid peptide (Peptide P) for treating ischemia and reperfusion injury” (University of Kentucky Research Foundation, priority 2001, dated 2003).
Several values for one entry are separate records, joined by “and”; a condition that tells them apart may be missing. Equal values may be shown once. Part of at least one peptide drawing is inferred or uncertain, most often the ends.

How the values were obtained:
[1] = tested on: focal middle cerebral arterial occlusion (MCAO) ischemia; experiment: Brain infarct volume in murine ischemia/reperfusion (MCAO) model, TTC-stained 2 mm sections; format: in vivo, mouse
[2] = tested on: focal middle cerebral arterial occlusion (MCAO) ischemia; experiment: Neurological deficit (behavior ranking 0 to 3) after MCAO ischemia/reperfusion; format: in vivo, mouse; settings: 4 mg/kg I.V. 1 hour following MCAO; 1 hr ischemia, 24 hr reperfusion; mean±SEM, n=6; control 1.55±0.19
[3] = individual mice No. 1-6, 4 mg/Kg, 1 hr ischemia, 24 hr reperfusion, listed as Pep-P

For `CC[C@H](C)[C@H](NC(=O)[C@H](CO)NC(=O)[C@H](Cc1c[nH]cn1)NC(=O)[C@H](Cc1ccccc1)NC(=O)[C@H](Cc1ccccc1)NC(=O)[C@H](CC(=O)O)NC(=O)CNC(=O)[C@@H](NC(=O)[C@@H](NC(=O)[C@H](CO)NC(=O)[C@H](C)NC(=O)[C@@H](NC(=O)[C@H](CC(=O)O)NC(=O)[C@H](C)NC(=O)[C@H](Cc1ccccc1)NC(=O)[C@@H](C)NC(=O)[C@@H](N)Cc1ccc(O)cc1)C(C)C)[C@@H](C)O)[C@@H](C)CC)C(N)=O` [Peptide P, Tyr-D-Ala-Phe-Ala-Asp-Val-Ala-Ser-Thr-Ile-Gly-Asp-Phe-Phe-His-Ser-Ile-NH2], the “infarct volume reduction compared to control animals” value ([1]; 4 mg/kg I.V., after 24 h of reperfusion) was 59%, the “Damaged Cross Section Area 1” value [1, 3] was 0 (2×) and 0.27 and the “Damaged Cross Section Area 2” value [1, 3] was 0.32 and 1.8. The “Damaged Cross Section Area (sum of sections)” value [1, 3] was 17.66 and 2.55 and 8.49 and 17.93 and 12.92 and 11.68 and the “neurological deficits (behavior ranking 0 to 3)” value [2] was 0.44±11.
